Test results reported in US20080312309A1, “CONTROLLED RELEASE ORAL FORMULATIONS OF ION CHANNEL MODULATING COMPOUNDS AND RELATED METHODS FOR PREVENTING ARRHYTHMIA” (priority 2007, published 2008).
At least one compound was matched to its structure with a doubt left.

Assay: Disposition and mass balance of 14C-vernakalant hydrochloride after single IV and oral doses in CYP2D6 EMs and PMs
Format: in vivo, human
Conditions: plasma metabolite
Text: This phase 1 study used an open-label, single-sequence, crossover design. […] The specific activity of the administered dose was 0.329 μCi/mg, yielding a total radioactive dose of 78.96 μCi. Participants remained confined to the center for 7 days after drug administration to ensure collection of urine and fecal samples for recovery of radioactivity. After an additional 2-week follow-up as outpatients, the cohort returned to the center 3 weeks after each dose (i.e., days 21 and 42) for end-of-study assessments.
Additional samples were obtained 5 minutes into the IV infusion and at its end.
Urine and fecal specimens were also collected at the end-of-study assessment. […]
Adverse events were evaluated daily, classified by intensity and association with treatment, and coded according to the MedDRA dictionary version 6.1. Vital signs, physical examination, 12-lead electrocardiograph (ECG), and laboratory tests including clinical chemistry, hematology, and urinalysis were evaluated at screening, 7 days after dosing, and at the end-of-study assessment. […]
Plasma samples first underwent solid-phase extraction on SPE cartridges containing a 30-mg MCX phase (Waters, Milford, Mass.); urine samples were analyzed directly. […]
Pharmacokinetic values were analyzed using noncompartmental analysis by means of WinNonlin version 5.0 (Pharsight Corp, Mountain View, Calif.). […]

## COc1ccc(CCO[C@@H]2CCCC[C@H]2N2CC[C@@H](O[C@@H]3O[C@H](C(=O)O)[C@@H](O)[C@H](O)[C@H]3O)C2)cc1OC [Vernakalant glucuronide]
  Cmax, times higher in PMs: 2 times
